Values of other authors as cited in US9568466B2, “In vitro assay for predicting renal proximal tubular cell toxicity” (priority 2012, dated 2017).

System: renal proximal tubule
Settings: in vivo; cited from earlier work

## CC(C)c1c(C(=O)Nc2ccccc2)c(-c2ccccc2)c(-c2ccc(F)cc2)n1CC[C@@H](O)C[C@@H](O)CC(=O)O [Compound 41, Atorvastatin]
  nephrotoxicity in humans / direct damage of the renal proximal tubule: non-nephrotoxic in humans
